This is an account of results in publication PMC11277097, “MRAP2a Binds and Modulates Activity and Localisation of Prokineticin Receptor 1 in Zebrafish” (International Journal of Molecular Sciences, 2024).

Amino acid sequences for entries named in this document (tags omitted). A change or cut given only in a name is not applied to a line headed by its entry.
UniProt D3TZW3: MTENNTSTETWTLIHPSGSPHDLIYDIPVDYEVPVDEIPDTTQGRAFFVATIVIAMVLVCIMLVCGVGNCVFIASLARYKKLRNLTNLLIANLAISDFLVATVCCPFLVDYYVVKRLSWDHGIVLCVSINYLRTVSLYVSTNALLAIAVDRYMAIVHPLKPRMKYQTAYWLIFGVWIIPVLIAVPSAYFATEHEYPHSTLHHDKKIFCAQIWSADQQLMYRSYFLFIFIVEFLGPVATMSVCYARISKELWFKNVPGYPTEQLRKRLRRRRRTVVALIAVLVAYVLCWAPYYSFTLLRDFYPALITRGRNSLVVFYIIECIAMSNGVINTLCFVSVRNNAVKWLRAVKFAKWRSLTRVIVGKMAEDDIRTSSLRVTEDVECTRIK

Assay [1] deals with FLAG-tagged zebrafish prokineticin receptor 1 (zPKR1-FLAG) (zebrafish) (UniProt D3TZW3). In words: cross-linking; CHO cells transiently co-transfected, 24 h later incubated at room temperature with 2 mM dithiobis(succinimidyl propionate); SDS-PAGE, blot with anti-His.
The target is the same in assay [2]. In words: co-IP; solubilised membranes of CHO cells co-expressing zPKR1-FLAG and His-tagged MRAP2; precipitated with FLAG-binding resin; blot with anti-His and anti-FLAG.
Assay [3] deals with zPKR1-NT-GST fusion protein (N-terminal region of zebrafish PKR1 fused with GST) (zebrafish). The assay can be described thus: pull-down; GST fusion protein on glutathione-Sepharose beads, buffer A (PBS, 1% Nonidet P 40, 1 mM EDTA), incubated 4 h with the purified His-tagged CT domain; eluted with GSH; blot with anti-His; both purified.

No constants are given. Whether binding was seen depends on the method and setting. A result given as binding can be weak or reduced; the word gives no strength. Sequences can lack the tags named with a protein. For some assays here: In cells and extracts the contact can be indirect.

B1: His-tagged human MRAP2 (hMRAP2-His) (protein, UniProt Q96G30 1-205)
chain: MSAQRLISNRTSQQSASNSDYTWEYEYYEIGPVSFEGLKAHKYSIVIGFWVGLAVFVIFMFFVLTLLTKTGAPHQDNAESSEKRFRMNSFVSDFGRPLEPDKVFSRQGNEESRSLFHCYINEVERLDRAKACHQTTALDSDVQLQEAIRSSGQPEEELNRLMKFDIPNFVNTDQNYFGEDDLLISEPPIVLETKPLSQTSHKDLD
B1: the binding result in assay [1] and in assay [2] was “binds” each time.

B2: His-tagged zebrafish MRAP2a (zMRAP2a-His) (protein, UniProt F8W4H9 1-217)
chain: MPRFQLSNSTSVPNHNYEWSYEYYDDEEPVSFEGLKAHRYSIVIGFWVGLAVFVIFMFFVLTLLTKTGAPHPEAAEPYEKRMRLTSCADGLGRQRETDGRTGLSRPLLEESRSLFHCYINEEEREGGRAATDAGALTHGRSGIGNSRGQVEEVGLVVQNMVLESRAEREAALLAHFNIPNFVNSELNSALGDEDLLLGDPPIIMEEARPRCTHHIID
Regarding B2, the binding result in assay [1] and in assay [2] was “binds” each time.

B3: C-terminal domain of zebrafish MRAP2a, His-tagged (zCT-MRAP2a) (domain or fragment, UniProt F8W4H9 73-217, looked up)
chain: EAAEPYEKRMRLTSCADGLGRQRETDGRTGLSRPLLEESRSLFHCYINEEEREGGRAATDAGALTHGRSGIGNSRGQVEEVGLVVQNMVLESRAEREAALLAHFNIPNFVNSELNSALGDEDLLLGDPPIIMEEARPRCTHHIID
notes: zebrafish MRAP2a, C-terminal domain, the region from residue 73 to residue 217 encoded by the third exon; cloned by PCR from plasmid XM_021473026.1 into pet28; also called zCT-MRAP2a domain; pet 28zCT-MRAP2; source: E. coli, purified (His-tagged protein purification kit)
B3: in assay [3], the binding result is “binds”.
